The list does not hold the whole screen: it gathers tests that were run many times, whatever their T/C, doses with no T/C, and many T/C values between a quarter and a half above the control. Further doses and runs are listed elsewhere. T/C gives the treated animals as a percentage of the vehicle group. Some entries give survivors of the animals treated and no T/C: the source files T/C as zero there, which appears to mark a toxic dose or a test without result, not a measured value. Some survivor counts are full or nearly so, which does not show that the dose was tolerated: survival well below the control is almost never listed, so the zero probably covers shortened survival too. Counts of survivors are from the toxicity check (mostly the fifth day) where no day follows; animals may have died later. Schedule codes are those of the source, read here as Q, the interval in days (D) or hours (H), X, the number of doses. Some schedules carry Z or #; the key to these is not given. Some entries hold several experiments; the results are listed from low to high. Where survival is the endpoint, the PubChem record calls one and a half times the control and up active, and a quarter to a half above the control has no call in these data; cut-offs in other NCI protocols can differ. Some T/C values are followed by the survivors on the day toxicity was checked, most often the fifth; without a count, all were alive then.
System: L1210 leukemia ip in BDF1 mice, survival T/C
Test: NCI In Vivo Anticancer Drug Screen. Data for tumor model L1210 Leukemia (intraperitoneal) in B6D2F1 (BDF1) mice
Conditions: T/C endpoint: mean survival time, higher T/C = longer survival
[1] = dose: 54.0 mg/kg/injection, schedule: Q01DX001 (ip), vehicle: other
[2] = dose: 200.0 mg/kg/injection, schedule: Q04DX003 (ip), vehicle: saline with Tween-80

For `O=NN(CCF)C(=O)NC1CCCCC1`, which T/C (dose: 1.56 mg/kg/injection, schedule: Q03HX032 (oral), vehicle: carboxymethylcellulose (CMC)) is on record?
Its T/C is 133 % of control.

And the T/C (dose: 2.66 mg/kg/injection, schedule: Q#B X003 (ip), vehicle: other)?
Its T/C is 134 % of control.

What about the T/C (dose: 3.12 mg/kg/injection, schedule: Q03HX008 (oral), vehicle: carboxymethylcellulose (CMC)) of the same molecule?
The T/C was 144 % of control.

What about the T/C (dose: 4.52 mg/kg/injection, schedule: Q01DX015 (ip), vehicle: other) of the same molecule?
Its T/C is 133 and 147 % of control.

And the T/C (dose: 7.5 mg/kg/injection, schedule: Q01DX001 (ip), vehicle: carboxymethylcellulose (CMC))?
The T/C was 126 % of control.

And the T/C (dose: 9.6 mg/kg/injection, schedule: Q## X032 (ip), vehicle: other)?
Its T/C is 138 % of control.

And the T/C (dose: 10.0 mg/kg/injection, schedule: Q01DX001 (ip), vehicle: carboxymethylcellulose (CMC))?
The T/C was 132 % of control.

And the T/C (dose: 10.0 mg/kg/injection, schedule: Q## X032 (ip), vehicle: other)?
The T/C was 140 % of control.

And the survivor count (dose: 12.5 mg/kg/injection, schedule: Q01DX005 (ip), vehicle: carboxymethylcellulose (CMC))?
Its survivor count is 0 of 8.

And the survivor count (dose: 12.5 mg/kg/injection, schedule: Q03HX008 (ip), vehicle: carboxymethylcellulose (CMC))?
Its survivor count is 8 of 8.

What about the T/C (dose: 12.5 mg/kg/injection, schedule: Q04DX004 (ip), vehicle: carboxymethylcellulose (CMC)) of the same molecule?
The T/C was 138 % of control.

What about the T/C (dose: 12.5 mg/kg/injection, schedule: Q04DX004 (oral), vehicle: carboxymethylcellulose (CMC)) of the same molecule?
Its T/C is 138 % of control.

And the T/C (dose: 13.0 mg/kg/injection, schedule: Q01DX001 (ip), vehicle: carboxymethylcellulose (CMC))?
The T/C was 128 % of control.

What about the survivor count (dose: 13.5 mg/kg/injection, schedule: Q01DX001 (ip), vehicle: other) of the same molecule?
Its survivor count is 2 of 10.

What about the T/C (dose: 14.0 mg/kg/injection, schedule: Q## X032 (ip), vehicle: other) of the same molecule?
The T/C was 135 % of control.

What about the T/C (dose: 19.4 mg/kg/injection, schedule: Q01DX001 (ip), vehicle: carboxymethylcellulose (CMC)) of the same molecule?
Its T/C is 126 % of control.

What about the T/C (dose: 20.0 mg/kg/injection, schedule: Q01DX001 (ip), vehicle: carboxymethylcellulose (CMC)) of the same molecule?
The T/C was 149 % of control.

What about the T/C (dose: 22.0 mg/kg/injection, schedule: Q## X032 (ip), vehicle: other) of the same molecule?
Its T/C is 128 % of control.

And the T/C (dose: 25.0 mg/kg/injection, schedule: Q01DX013 (ip), vehicle: carboxymethylcellulose (CMC))?
Its T/C is 133 % of control.

What about the survivor count (dose: 25.0 mg/kg/injection, schedule: Q03HX008 (ip), vehicle: carboxymethylcellulose (CMC)) of the same molecule?
Its survivor count is 4 of 8.

And the T/C (dose: 25.0 mg/kg/injection, schedule: Q03HX008 (oral), vehicle: carboxymethylcellulose (CMC))?
The T/C was 127 % of control [7 of 8 alive].

And the T/C (dose: 32.0 mg/kg/injection, schedule: Q## X032 (ip), vehicle: other)?
The T/C was 128 % of control.

And the T/C (dose: 32.4 mg/kg/injection, schedule: Q01DX001 (ip), vehicle: carboxymethylcellulose (CMC))?
The T/C was 144 % of control.

What about the survivor count (dose: 37.5 mg/kg/injection, schedule: Q01DX001 (ip), vehicle: carboxymethylcellulose (CMC)) of the same molecule?
Its survivor count is 0 of 6.

And the survivor count (dose: 41.0 mg/kg/injection, schedule: Q## X001 (ip), vehicle: other)?
The survivor count was 50 of 50.

What about the survivor count (dose: 50.0 mg/kg/injection, schedule: Q01DX001 (ip), vehicle: carboxymethylcellulose (CMC)) of the same molecule?
The survivor count was 2 of 6.

What about the survivor count (dose: 50.0 mg/kg/injection, schedule: Q01DX001 (sc), vehicle: other) of the same molecule?
Its survivor count is 1 of 6.

What about the T/C (dose: 50.0 mg/kg/injection, schedule: Q01DX013 (ip), vehicle: carboxymethylcellulose (CMC)) of the same molecule?
The T/C was 144 % of control.

What about the T/C [1] of the same molecule?
Its T/C is 703 % of control [9 of 10 alive].

What about the survivor count [1] of the same molecule?
The survivor count was 4 of 10, 5 of 10, 6 of 10.

What about the survivor count (dose: 54.0 mg/kg/injection, schedule: Q01DX001 (oral), vehicle: other) of the same molecule?
The survivor count was 1 of 9.

And the T/C (dose: 60.0 mg/kg/injection, schedule: Q## X004 (ip), vehicle: other)?
The T/C was 134 % of control [8 of 10 alive].

And the survivor count (dose: 75.0 mg/kg/injection, schedule: Q01DX001 (ip), vehicle: carboxymethylcellulose (CMC))?
The survivor count was 0 of 6.

And the survivor count (dose: 81.0 mg/kg/injection, schedule: Q01DX001 (ip), vehicle: other)?
The survivor count was 3 of 10.

What about the survivor count (dose: 100.0 mg/kg/injection, schedule: Q01DX001 (ip), vehicle: carboxymethylcellulose (CMC)) of the same molecule?
Its survivor count is 0 of 6 and 4 of 8.

What about the survivor count (dose: 100.0 mg/kg/injection, schedule: Q01DX001 (sc), vehicle: carboxymethylcellulose (CMC)) of the same molecule?
Its survivor count is 6 of 8.

And the survivor count (dose: 100.0 mg/kg/injection, schedule: Q01DX001 (sc), vehicle: other)?
The survivor count was 0 of 6.

What about the survivor count (dose: 100.0 mg/kg/injection, schedule: Q01DX005 (ip), vehicle: carboxymethylcellulose (CMC)) of the same molecule?
Its survivor count is 1 of 8.

What about the T/C (dose: 100.0 mg/kg/injection, schedule: Q01DX005 (oral), vehicle: carboxymethylcellulose (CMC)) of the same molecule?
Its T/C is 133 % of control [6 of 8 alive].

What about the survivor count (dose: 100.0 mg/kg/injection, schedule: Q04DX004 (ip), vehicle: carboxymethylcellulose (CMC)) of the same molecule?
Its survivor count is 5 of 8.

What about the survivor count (dose: 122.0 mg/kg/injection, schedule: Q01DX001 (ip), vehicle: other) of the same molecule?
Its survivor count is 0 of 10.

And the survivor count (dose: 125.0 mg/kg/injection, schedule: Q01DX001 (ip), vehicle: carboxymethylcellulose (CMC))?
Its survivor count is 0 of 6.

What about the survivor count (dose: 150.0 mg/kg/injection, schedule: Q01DX001 (ip), vehicle: carboxymethylcellulose (CMC)) of the same molecule?
Its survivor count is 0 of 6.

What about the survivor count (dose: 175.0 mg/kg/injection, schedule: Q01DX001 (ip), vehicle: carboxymethylcellulose (CMC)) of the same molecule?
The survivor count was 0 of 6.

What about the survivor count (dose: 200.0 mg/kg/injection, schedule: Q01DX001 (oral), vehicle: carboxymethylcellulose (CMC)) of the same molecule?
Its survivor count is 7 of 8.

What about the survivor count (dose: 200.0 mg/kg/injection, schedule: Q01DX001 (sc), vehicle: carboxymethylcellulose (CMC)) of the same molecule?
Its survivor count is 6 of 8.

And the survivor count (dose: 200.0 mg/kg/injection, schedule: Q01DX001 (sc), vehicle: other)?
The survivor count was 0 of 6.

And the survivor count (dose: 225.0 mg/kg/injection, schedule: Q01DX001 (ip), vehicle: carboxymethylcellulose (CMC))?
Its survivor count is 0 of 6.

And the survivor count (dose: 250.0 mg/kg/injection, schedule: Q01DX001 (ip), vehicle: carboxymethylcellulose (CMC))?
Its survivor count is 0 of 6.

What about the survivor count (dose: 300.0 mg/kg/injection, schedule: Q01DX001 (ip), vehicle: carboxymethylcellulose (CMC)) of the same molecule?
The survivor count was 0 of 6.

What about the survivor count (dose: 375.0 mg/kg/injection, schedule: Q01DX001 (ip), vehicle: carboxymethylcellulose (CMC)) of the same molecule?
Its survivor count is 0 of 6.

With `NCCSc1ccc(Br)cc1` as the molecule, how does the survivor count (dose: 300.0 mg/kg/injection, schedule: Q01DX001 (ip), vehicle: other) read?
The survivor count was 3 of 6.

How did the survivor count (dose: 400.0 mg/kg/injection, schedule: Q01DX001 (ip), vehicle: saline) turn out when `CC(=O)NC1CCCCC1c1ccc(C2CCCCC2NC(C)=O)cc1` (stereo not drawn) was run?
The survivor count was 0 of 6.

How did the survivor count (dose: 9.0 mg/kg/injection, schedule: Q01DX009 (ip), vehicle: saline) turn out when `CC(=O)[S][Pb]([c]1ccccc1)([c]1ccccc1)[c]1ccccc1` was run?
The survivor count was 1 of 6.

What about the survivor count (dose: 13.0 mg/kg/injection, schedule: Q01DX009 (ip), vehicle: saline) of the same molecule?
The survivor count was 0 of 6.

With `O=C(Nc1ccc(C2=NCCN2)cc1)Nc1cccc(NC(=S)Nc2ccc(C3=NCCN3)cc2)c1` as the molecule, how does the T/C (dose: 15.0 mg/kg/injection, schedule: Q01DX Z (ip), vehicle: saline) read?
The T/C was 140 % of control.

What about the survivor count (dose: 60.0 mg/kg/injection, schedule: Q01DX Z (ip), vehicle: saline) of the same molecule?
Its survivor count is 5 of 6.

And the survivor count (dose: 120.0 mg/kg/injection, schedule: Q01DX Z (ip), vehicle: saline)?
Its survivor count is 0 of 6.

With `O=C1C[C@@H]2OCC=C3C[N+]4([O-])CC[C@]56c7ccccc7N1[C@H]5[C@H]2[C@H]3C[C@@H]64` (stereo partly drawn) as the molecule, how does the survivor count (dose: 75.0 mg/kg/injection, schedule: Q01DX001 (ip), vehicle: saline) read?
Its survivor count is 3 of 6.

And the survivor count (dose: 300.0 mg/kg/injection, schedule: Q01DX001 (ip), vehicle: saline)?
Its survivor count is 0 of 6.

With `CC(=O)Nc1ccc2c(c1)C[N+](C)(C1CCCCC1)CO2` (stereo not drawn) as the molecule, how does the survivor count (dose: 100.0 mg/kg/injection, schedule: Q01DX015 (ip), vehicle: carboxymethylcellulose (CMC)) read?
Its survivor count is 3 of 6.

What about the survivor count (dose: 200.0 mg/kg/injection, schedule: Q01DX015 (ip), vehicle: carboxymethylcellulose (CMC)) of the same molecule?
The survivor count was 0 of 6.

What about the survivor count [2] of the same molecule?
Its survivor count is 2 of 6.

What about the survivor count (dose: 400.0 mg/kg/injection, schedule: Q01DX001 (ip), vehicle: carboxymethylcellulose (CMC)) of the same molecule?
The survivor count was 3 of 6.

With `Cc1cnc2no[n+]([O-])c2c1` as the molecule, how does the survivor count (dose: 400.0 mg/kg/injection, schedule: Q04DX003 (ip), vehicle: Klucel (hydroxypropylcellulose) (HPC)) read?
Its survivor count is 0 of 6.

Which results are given for `CSc1ncnc2[nH]ncc12`?
survivor count (dose: 100.0 mg/kg/injection, schedule: Q01DX009 (ip), vehicle: saline with Tween-80): 3 of 6; survivor count [2]: 1 of 6; survivor count (dose: 400.0 mg/kg/injection, schedule: Q04DX003 (ip), vehicle: saline with Tween-80): 0 of 6

Reference: PubChem BioAssay AID248 (DTP/NCI, 2004)
